Data source: PubChem BioAssay AID720505 (Drosophila RNAi Screening Center, 2013)
Screen: 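Knock-downs that reduce calcium influx once internal stores are emptied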 (primary screen). Cell system: Drosophila S2R+ cells. Reagent: long dsRNA against Drosophila genes. Challenge: thapsigargin (2 µM) in calcium-free buffer to empty internal stores, then 2 mM calcium added back. Measurement: 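Fluo-4 signal in 384-well plates read on a FLIPR after thapsigargin (2 µM, calcium-free) store depletion and 2 mM calcium add-back; unnormalised mean endpoint per well; screen run twice, selected wells retested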. Scale: calcium signal and retest calcium signal: higher = more calcium entry after store depletion. Active means: 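Knock-downs counted as hits when calcium entry dropped relative to STIM1 positive and Rho1 negative controls present on each plate; roughly 1500 genes called, with reductions of differing size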. Calls: active = called as lowering calcium entry; inactive = not called.
The screen tested about 20,000 reagents; shown is a random part of those that have a named target and a result. Over the whole deposit, about 2,100 (10%) are marked active. 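Raw plate signals without normalisation; calls rest on control-based scores that were not deposited; replicate 2 separates called from uncalled poorly.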 Names joined by + are all predicted targets of the reagent. The record does not give: the amount of reagent, the time to read-out.

{"gene": "CG33310", "dsRNA": "DRSC01897", "calcium signal, replicate 1": 107, "calcium signal, replicate 2": 111, "Outcome": "inactive"}
{"gene": "PIG-X", "dsRNA": "DRSC22721", "calcium signal, replicate 1": 121, "calcium signal, replicate 2": 196, "Outcome": "inactive"}
{"gene": "sle + CG12592", "dsRNA": "DRSC21387", "calcium signal, replicate 1": 113, "calcium signal, replicate 2": 96.2, "Outcome": "inactive"}
{"gene": "CG34167", "dsRNA": "DRSC01525", "calcium signal, replicate 1": 114, "calcium signal, replicate 2": 90.8, "Outcome": "active"}
{"gene": "PpN58A", "dsRNA": "DRSC04642", "calcium signal, replicate 1": 134, "calcium signal, replicate 2": 79.7, "Outcome": "inactive"}
{"gene": "CG4069", "dsRNA": "DRSC10396", "calcium signal, replicate 1": 82.1, "calcium signal, replicate 2": 124, "Outcome": "inactive"}
{"gene": "RapGAP1", "dsRNA": "DRSC02293", "calcium signal, replicate 1": 52.6, "calcium signal, replicate 2": 141, "retest calcium signal, replicate 1": 76.8, "retest calcium signal, replicate 2": 94.8, "Outcome": "active"}
{"gene": "RapGAP1", "dsRNA": "DRSC02294", "calcium signal, replicate 1": 58.5, "calcium signal, replicate 2": 149, "Outcome": "active"}
{"gene": "RapGAP1", "dsRNA": "DRSC02295", "calcium signal, replicate 1": 50.6, "calcium signal, replicate 2": 154, "Outcome": "active"}
{"gene": "RapGAP1", "dsRNA": "DRSC03406", "calcium signal, replicate 1": 125, "calcium signal, replicate 2": 257, "Outcome": "inactive"}

Copied from the entries so far, 2 entries:
{"gene": "PpN58A", "dsRNA": "DRSC04642", "calcium signal, replicate 1": 134, "calcium signal, replicate 2": 79.7, "Outcome": "inactive"}
{"gene": "CG4069", "dsRNA": "DRSC10396", "calcium signal, replicate 1": 82.1, "calcium signal, replicate 2": 124, "Outcome": "inactive"}

More results follow:
{"gene": "TyrRII", "dsRNA": "DRSC15150", "calcium signal, replicate 1": 96.5, "calcium signal, replicate 2": 80.3, "Outcome": "inactive"}
{"gene": "CG17219", "dsRNA": "DRSC00486", "calcium signal, replicate 1": 56.9, "calcium signal, replicate 2": 86.7, "Outcome": "active"}
{"gene": "levy", "dsRNA": "DRSC04289", "calcium signal, replicate 1": 147, "calcium signal, replicate 2": 192, "Outcome": "inactive"}
{"gene": "wol", "dsRNA": "DRSC03077", "calcium signal, replicate 1": 112, "calcium signal, replicate 2": 305, "Outcome": "inactive"}
{"gene": "mRpL23", "dsRNA": "DRSC08307", "calcium signal, replicate 1": 115, "calcium signal, replicate 2": 93.2, "Outcome": "inactive"}
{"gene": "mRpS34", "dsRNA": "DRSC09918", "calcium signal, replicate 1": 87, "calcium signal, replicate 2": 151, "Outcome": "inactive"}
{"gene": "RpL28 + snoRNA:Or-CD12", "dsRNA": "DRSC08293", "calcium signal, replicate 1": 52.7, "calcium signal, replicate 2": 83.2, "Outcome": "inactive"}
{"gene": "CG12929", "dsRNA": "DRSC06242", "calcium signal, replicate 1": 111, "calcium signal, replicate 2": 145, "Outcome": "inactive"}
{"gene": "resilin", "dsRNA": "DRSC05627", "calcium signal, replicate 1": 150, "calcium signal, replicate 2": 84.9, "Outcome": "inactive"}
{"gene": "resilin", "dsRNA": "DRSC06595", "calcium signal, replicate 1": 158, "calcium signal, replicate 2": 169, "Outcome": "inactive"}
